These are yes or no findings as the source states them, for the method shown. In cells and extracts the contact can be indirect. Here binding means that the protein was enriched with, or labelled near, the bait; the list need not be complete. Sequences can lack the tags named with a protein.

The assay has as its target T1, CCCTC-binding factor (CTCF), immunoprecipitated from ES and NS cell chromatin in ChIP-SICAP (mouse (endogenous in ES and NS cells)) (UniProt Q61164).
T1 sequence: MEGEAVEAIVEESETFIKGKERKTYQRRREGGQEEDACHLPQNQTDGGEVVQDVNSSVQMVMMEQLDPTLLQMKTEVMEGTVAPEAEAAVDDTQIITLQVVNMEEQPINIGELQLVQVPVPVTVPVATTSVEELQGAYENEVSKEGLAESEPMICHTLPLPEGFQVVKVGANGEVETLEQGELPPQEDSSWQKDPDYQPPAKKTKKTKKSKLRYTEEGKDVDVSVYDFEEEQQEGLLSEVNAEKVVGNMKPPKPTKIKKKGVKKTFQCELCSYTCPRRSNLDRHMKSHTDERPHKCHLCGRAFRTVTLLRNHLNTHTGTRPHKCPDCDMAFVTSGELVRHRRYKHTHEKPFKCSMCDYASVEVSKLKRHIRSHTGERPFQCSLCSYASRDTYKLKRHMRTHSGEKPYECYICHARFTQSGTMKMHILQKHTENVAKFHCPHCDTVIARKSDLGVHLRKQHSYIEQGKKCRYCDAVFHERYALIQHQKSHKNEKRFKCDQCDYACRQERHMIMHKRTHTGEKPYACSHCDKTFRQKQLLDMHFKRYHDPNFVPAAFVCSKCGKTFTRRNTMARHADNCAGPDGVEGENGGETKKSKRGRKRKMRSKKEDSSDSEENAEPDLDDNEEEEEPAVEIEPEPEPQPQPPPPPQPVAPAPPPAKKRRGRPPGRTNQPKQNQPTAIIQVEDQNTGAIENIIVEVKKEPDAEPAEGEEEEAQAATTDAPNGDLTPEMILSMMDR
Briefly: affinity purification with mass spectrometry; ChIP-SICAP: ES and NS cells fixed with 1.5% formaldehyde, chromatin sonicated, immunoprecipitated with anti-CTCF (D31H2), DNA biotinylated by TdT, eluted and recaptured on streptavidin beads, on-bead digestion, Orbitrap MS; abundances normalised to CTCF.

B1: Dppa4 (protein, UniProt Q8CCG4 1-296)
chain: METAGDKKWSAEEPKEEVELQMSSQPSTAPAKAKATGKKQKKSETDNGCKPKEGKPQDTETPGQTRRKVPIPPIPEYLPPVNLIHRDVLRAWCQKKRVSSKGQKLDAYKRLLARAFPEQMLELRNVPDSAKDARLKTAHKKMKTEPGEESEVTVPLEMVPVPEEQIPALIDPPMLYEEVSTTVVTTPATEAVLASWARIASNAKKYEAVPADASSSSEVKGEMWCVVHGTSLPGNSRGWVRLQFHAGQAWVPDKKGKAIALFLLPACTFPPPHLEDNMLCPKCVHKNKILTKSLEG
B1: the binding entry is on record as “binds”.

B2: Stag2 (protein, UniProt O35638 1-1231)
chain: MIAAPEIPTDFNLLQESETHFSSDTDFEDIEGKNQKQGKGKTCKKGKKGPAEKGKSGNGGGKPPSGSNRMNGHHQQNGVENMMLFEVVKMGKSAMQSVVDDWIESYKHDRDIALLDLINFFIQCSGCKGVVTAEMFRHMQNSEIIRKMTEEFDEDSGDYPLTMAGPQWKKFKSSFCEFIGVLVRQCQYSIIYDEYMMDTVISLLTGLSDSQVRAFRHTSTLAAMKLMTALVNVALNLSINMDNTQRQYEAERNKMIGKRANERLELLLQKRKELQENQDEIENMMNAIFKGVFVHRYRDAIAEIRAICIEEIGIWMKMYSDAFLNDSYLKYVGWTMHDKQGEVRLKCLTALQGLYYNKELNSKLELFTSRFKDRIVSMTLDKEYDVAVQAIKLLTLVLQSSEEVLTAEDCENVYHLVYSAHRPVAVAAGEFLYKKLFSRRDPEEDGLMKRRGRQGPNANLVKTLVFFFLESELHEHAAYLVDSMWDCATELLKDWECMNSLLLEEPLSGEEALTDRQESALIEIMLCTIRQAAECHPPVGRGTGKRVLTAKEKKTQLDDRTRITELFAVALPQLLAKYSVDAEKVTNLLQLPQYFDLEIYTTGRLEKHLDALLRQIRNIVEKHTDTDVLEACSKTYHALCNEEFTIFNRVDISRSQLIDELADKFNRLLEDFLQEGEEPDEDDAYQVLSTLKRITAFHNAHDLSKWDLFACNYKLLKTGIENGDMPEQIVIHALQCAHYVILWQLAKITESTSTKEDLLRLKKQMRVFCQICQHYLTNVNTTVKEQAFTILCDILMIFSHQIMSGGRDMLEPLVYTPDSSLQSELLSFILDHVFIEQDDDSNSADGQQEDEASKIEALHKRRNLLAAFCKLIVYTVVEMNTAADIFKQYMKYYNDYGDIIKETMSKTRQIDKIQCAKTLILSLQQLFNEMIQENGYNFDRSSSTFSGIKELARRFALTFGLDQLKTREAIAMLHKDGIEFAFKEPNPQGESHPPLNLAFLDILSEFSSKLLRQDKRTVYVYLEKFMTFQMSLRREDVWLPLMSYRNSLLAGGDDDTMSVISGMSSRGSTVRSKKSKPSTGKRKVVEGMQLALPEESSSSDSMWLSREQTLHTPVMMQTPQLTSTIMREPKRLRPEDSFMSVYPMQAEHHQTPLDYNRRGTSLMEDDEEPIVEDVMMSSEGRIEDLNEGMDFDTMDIDLPPSKNRRERTELKPDFFDPASIMDESVLGVSMF
With B2, the binding result is recorded as “binds”.

B3: Dppa2 (protein, UniProt Q9CWH0 1-301)
chain: MSYFGLETFNENQSEENLDEESVILTLVPFKEEEEPNTDYATQSNVSSSTLDHTPPARSLVRHAGIKHPTRTIPSTCPPPSLPPIRDVSRNTLREWCRYHNLSTDGKKVEVYLRLRRHSYSKQECYIPNTSREARMKQGPKKSKIVFRGIGPPSGCQRKKEESGVLEILTSPKESTFAAWARIAMRAAQSMSKNRCPLPSNVEAFLPQATGSRWCVVHGRQLPADKKGWVRLQFLAGQTWVPDTPQRMNFLFLLPACIIPEPGVEDNLLCPECVHSNKKILRNFKIRSRAKKNALPPNMPP
Take B3: the binding entry is on record as “binds”.

B4: Zbtb44 (protein, UniProt Q8R0A2 1-453)
chain: MGVKTFTHSSSSHSQEMLGKLNMLRNDGHFCDITIRVQDKIFRAHKVVLAACSDFFRTKLVGQTEDENKNVLDLHHVTVTGFIPLLEYAYTATLSINTENIIDVLAAASYMQMFSVASTCSEFMKSSILWNTPNSQPEKSLDAGQENSSNCNFTSRDGSISPVSSECSAVERTIPVCRESRRKRKSYIVMSPESPVKCSTQTSSPQVLNSSASYAENRSQPVDSSLAFPWTFPFGIDRRIQPEKAKQAENTRTLELPGPSEAGRRVADYVTCESTKPTLPLGTEEDVRVKVERLSDEEVHEEVSQPVSASQSSLSDQQTVPGSEPVQEDLLISPQSSSIGSVDEGVTEGLPTLQSTSSTNAHADDDDRLENVQYPYQLYIAPSTSSTERPSPNGPDRPFQCPTCGVRFTRIQNLKQHMLIHSGIKPFQCDCCGKKFTRAYSLKMHRLKHEVIS
In the case of B4, the binding result was “binds”.

B5: Non-POU Domain Containing Octamer Binding (Nono) (protein, UniProt Q99K48 1-473)
chain: MQSNKAFNLEKQNHTPRKHHQHHHQQHHQQQQQQQQQQPPPPIPANGQQASSQNEGLTIDLKNFRKPGEKTFTQRSRLFVGNLPPDITEEEMRKLFEKYGKAGEVFIHKDKGFGFIRLETRTLAEIAKVELDNMPLRGKQLRVRFACHSASLTVRNLPQYVSNELLEEAFSVFGQVERAVVIVDDRGRPSGKGIVEFSGKPAARKALDRCSEGSFLLTTFPRPVTVEPMDQLDDEEGLPEKLVIKNQQFHKEREQPPRFAQPGSFEYEYAMRWKALIEMEKQQQDQVDRNIKEAREKLEMEMEAARHEHQVMLMRQDLMRRQEELRRMEELHNQEVQKRKQLELRQEEERRRREEEMRRQQEEMMRRQQEGFKGTFPDAREQEIRMGQMAMGGAMGINNRGAMPPAPVPPGTPAPPGPATMMPDGTLGLTPPTTERFGQAATMEGIGAIGGTPPAFNRPAPGAEFAPNKRRRY
As to B5, the binding entry is listed as “binds”.

B6: Fiz1 (protein, UniProt Q9WTJ4 1-500)
chain: MEDSSLPVVPAPIAAPGPAPSATAPRVPFHCSECGKSFRYRSDLRRHFARHTALKPHACPRCGKGFKHSFNLANHLRSHTGERPYRCSACPKGFRDSTGLLHHQVVHTGEKPYCCLVCELRFSSRSSLGRHLKRQHRGTLPSPLQPSPGLPPLSSPCSVCCNVGPCSVCGGGGSSGGEGLEGAGATSWGLAEAAAAAAASLPPFACGACARRFDHGRELAAHWAAHTDVKPFKCPRCERDFNAPALLERHKLTHDLQGSNAPPTQVWASGGGPEVAGEGDASEVGAAPQTWDAGLLLSPTGAGVPKLEALLPGDEGSGNDQAPAAAAEASSEDTLYQCDCGTFFASAPALASHLEAHSGPATYGCGHCGALYAALAALEEHRRASHGEGSGEAAPDGEGNQAAGGPGPGSSSRSKKIFGCSECEKLFRSPRDLERHVLVHTGEKPFPCLECGKFFRHECYLKRHRLLHGTERPFPCHICGKGFITLSNLSRHLKLHRGMD
On to B6, for which the binding entry is listed as “binds”.
